Measurements reported in PubChem BioAssay AID1259254 (NCATS, 2017).
The deposit covers about 59,000 reagents; shown is an unselected part. In the full data, about 1,550 (2.6%) are marked active. 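G2 share is only a proxy for re-replication; each gene was hit by three separate siRNAs, and active genes were retested.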 Entries without a mark were called inactive. The numbers tell different reagents against one gene apart. Not all columns of the deposit are shown. The record does not give: the amount of reagent.

- Test: 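Gene knock-downs that lead to re-replication, shown by excess G2 DNA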 (primary screen)
- Cell system: human HCT116 colorectal cancer cells
- Reagent: single siRNA against human genes
- Duration: 3 days
- Detection: 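Imaged Hoechst DNA stain sorts each cell into a cycle phase by DNA amount; per plate, G2 fraction set to 0% for non-targeting and 100% for GMNN siRNA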
- Direction: G2 robust z-score: higher = more G2 cells, more excess DNA replication
- Active means: 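Active siRNAs have a G2 robust z of 5 or more median absolute deviations over the median, which in these data means about 38% or higher of GMNN control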

| Target gene | reagent | G2 robust z-score |
| --- | --- | --- |
| CATSPER4 | 1 | -0.216 |
| CATSPER4 | 2 | 0.798 |
| CATSPER4 | 3 | -0.484 |
| LIMD1 | 1 | -0.299 |
| LIMD1 | 2 | -0.0992 |
| LIMD1 | 3 | 0.438 |
| OR51B5 | 1 | 0.913 |
| OR51B5 | 2 | 3.4 |
| OR51B5 | 3 | -0.559 |
| GLRA3 | 1 | -0.0158 |
| GLRA3 | 2 | 1.13 |
| GLRA3 | 3 | 1.13 |
| MTHFD1L | 1 | 0.718 |
| MTHFD1L | 2 | 0.463 |
| MTHFD1L | 3 | -0.418 |
| CCNB2 | 1 | -0.819 |
| CCNB2 | 2 | -0.429 |
| CCNB2 | 3 | 1.79 |
| ZNF473CR | 1 | 1.41 |
| ZNF473CR | 2 | -0.038 |
| ZNF473CR | 3 | -1.11 |
| COMMD2 | 1 | 0.892 |
| COMMD2 | 2 | 2.88 |
| COMMD2 | 3 | -0.0839 |
| DLL3 | 1 | -0.773 |
| DLL3 | 2 | -0.324 |
| DLL3 | 3 | -0.16 |
| NUBPL | 1 | -0.0592 |
| NUBPL | 2 | 1.3 |
| NUBPL | 3 | -0.899 |
| ZNF660 | 1 | 0.541 |
| ZNF660 | 2 | -0.706 |
| ZNF660 | 3 | -0.413 |
| FBXL13 | 1 | 2.2 |
| FBXL13 | 2 | 8.02 (active) |
| FBXL13 | 3 | 2.12 |
| FAM209A | 1 | -0.529 |
| FAM209A | 2 | -1.14 |
| FAM209A | 3 | 0.356 |
| CYP2C8 | 1 | 0.0527 |
| CYP2C8 | 2 | -0.866 |
| CYP2C8 | 3 | -1.32 |
| NPBWR2 | 1 | 1.28 |
| NPBWR2 | 2 | 2.29 |
| NPBWR2 | 3 | 0.415 |
| ATP5MC3 | 1 | 1.96 |
| ATP5MC3 | 2 | 1.06 |
| ATP5MC3 | 3 | -1.09 |
| RUSF1 | 1 | 0.0161 |
| RUSF1 | 2 | 0.486 |
| RUSF1 | 3 | 0.0837 |
| ZNF354A | 1 | -0.439 |
| ZNF354A | 2 | 0.151 |
| ZNF354A | 3 | 1.37 |
| MOB3A | 1 | 1.22 |
| MOB3A | 2 | -0.344 |
| MOB3A | 3 | -0.196 |
| PEX11A | 1 | 5.39 (active) |
| PEX11A | 2 | 0.257 |
| PEX11A | 3 | 0.236 |
| TOX4 | 1 | 0.335 |
| TOX4 | 2 | 0.16 |
| TOX4 | 3 | -0.872 |
| NFAM1 | 1 | -0.369 |
| NFAM1 | 2 | 1.38 |
| NFAM1 | 3 | 0.279 |
| PECR | 1 | -1.49 |
| PECR | 2 | 4.89 |
| PECR | 3 | -0.75 |
